Results from article PMC10163288.
This is one part of the list.

B1: il2ra_site1_1z92_normal_mot_73a3237f21306322153cb43486d2ff88_0001_1_af2_000000006_0001_34_49_H_._66959ead3e6c57cb3ef8243f3eb758e0_0001_1_0001_0000300041_0000001 … (protein)
chain: NEAEEDLREAVEKNDEEELRKFIELLLRDAGDPKLVKQLLKILVKRLGLPPEVLERLEELLEELT
B2: il2ra_site1_1z92_normal_mot_HHH_b1_00893_000000159_0001_19_35_H_._3c0bf5cfbbd8e8a5fc1cbabefe5f89f2_0001_0001_0000100017_0000001_0_af2pred_0001_af2pred_1_swapped (protein)
chain: DRAERFLREQLERKLRKDVEAAARLLLKMAKANRDPELEEEAEKALELVKRDPEEAERLIRELLK
B3: il2ra_site1_2b5i_normal_mot_HHH_b2_08121_af2_000000082_0001_40_52_H_._HHH_b2_06152_0001_0000300013_0000001_1_af2pred_dldesign_0_af2pred (protein)
chain: SSSSSDLRAFADRTVDELKERLGLSEGARRQLRRFADLAVEQGVDEETLRKEVEAFARRASSSSS
B4: il2ra_site2_3nfp_normal_mot_HHH_b2_03978_000000149_0001_1_20_H_._HHH_b2_02394_0001_0000100002_0000001_0 (protein)
chain: SSSSDTEEEAEELLREAKELLERGNPEEALEILSRAAALAYRSGDHELFAKISEVMHELNSSSSS
B5: il2ra_site1_1z92_normal_mot_b1fbee8209167eaadba3689d49187f1a_0001_1_af2_000000018_0001_16_31_H_._0e4f66a3c4b070984708d3e1d5382b02_0001_1_0001_0000100003_0000001 … (protein)
chain: TNAEETFELARELGIPPEKVVRAIVSAVRRHDPRLREEAEELLEQVERGELPPEEAVKLLLELAE
B6: il2ra_site2_2erj_sap_19_mot_c2dd1dc352432ff47dded349a4d391fc_0001_1_000000244_0001_1_14_H_._HHH_b2_02787_0001_0000600019_0000001_0_0001 (protein)
chain: SSSSSAREASERVSELLAEANEVDDPEEFEELLREAERLAEEANNPFLERYIEYSRRDFHSSSSS
B7: il2ra_site1_2b5i_normal_mot_f5ff40796168375b462bec8614a1db4a_0001_1_000000138_0001_53_65_H_._HHH_b1_01883_0001_0000600017_0000001_0_af2pred_dldesign_0_af2pred (protein)
chain: SSSSSIRELVEELIEEAKRLKKEGKEDLVKKLLLLARRLAERAKDPELVAKVEEVEKEVESSSSS
B8: il2ra_site1_2b5i_sap_8_mot_HHH_b1_06844_000000212_0001_1_18_H_._HHH_b2_04608_af2_0001_0000600036_0000001_0_0001_af2pred_dldesign_0_af2pred (protein)
chain: SSSSSSFKEALLEAERLYKEAEKVDKETQKEILARVKELYEKYKDPAIAAAVEEIEELLKSSSSS
B9: il2ra_site1_1z92_sap_24_mot_HHH_b1_07866_af2_000000238_0001_1_18_H_._HHH_b1_02195_af2_0001_0000700010_0000001_0_0001_af2pred_0001_af2pred_1 (protein)
chain: DLEELLEKVLELLEQGNVEEARKLLEEILKELEERGDPLAYAFEALLKLLKKDEESAEKFVRKLL
B10: il2ra_site2_2erj_normal_mot_HHH_b1_01341_af2_000000245_0001_42_57_H_._HEEHE_1349_0001_0000400011_0000001_0_af2pred_0001_af2pred (protein)
chain: SDDEFLERAVEELAKAAGVPSVEVTVENNRIEVTIEGDDELARYASEILENVARWLGVELEVRVE
B11: il2ra_site2_2erj_normal_mot_HHH_b2_07139_000000086_0001_40_57_H_._HHH_b1_03178_af2_0001_0000900021_0000001_0 (protein)
chain: SSSSDERLREIFELLSKVAQALYEGNPEEAERLIEEARKVIEELNSENARELLEWLERHAESSSS
B12: il2ra_site1_3nfp_sap_10_mot_HHH_b1_03195_af2_000000163_0001_42_58_H_._HHH_b2_02207_0001_0000600013_0000001_0_0001 (protein)
chain: SSSSDQEAADELYELIKALIELAREGDEEEAEKVLKRLEELAKELGDEDAERAVEFLRRANSSSS
B13: il2ra_site2_3nfp_normal_mot_HHH_b1_01086_000000225_0001_20_36_H_._HHH_b1_05252_0001_0000300013_0000001_0 (protein)
chain: SSSSEEEELERLLERIKELLEQGNLEEARELLRKVTHLAFKANDFEVFAAVADLSFLLFELNSSS
B14: il2ra_site2_2erj_normal_mot_ems_3hM_1508_000000265_0001_1_20_H_._HHH_b2_01938_af2_0001_0000500037_0000001_0 (protein)
chain: SSSSSDEEERVLELLQEALEVQDEERFEELLREAKELAEELGDEELRLMIEVLERYRERLSSSSS
B15: il2ra_site2_3nfp_normal_mot_HHH_b1_05437_000000005_0001_40_57_H_._HHH_b1_02280_0001_0000400026_0000001_0 (protein)
chain: SSSSSSSEEERRVEELIEELRHVDEEERKRLLQEATHLAYENRNFELFAILAEELYKLASSSSSS
B16: il2ra_site1_3nfp_sap_19_mot_HHH_b1_02637_af2_000000026_0001_1_18_H_._HHH_b1_03532_0001_0000300009_0000001_0_0001 (protein)
chain: SSSSSSDEEEVERLLEEAKHIEDPEEAARILEEAYRIAQEAKNQELADEIYKVLREIISSSSSSS
B17: il2ra_site1_3nfp_normal_mot_HHH_b1_03476_af2_000000029_0001_1_17_H_._7d14571b405f2e878e8a4f9002b40290_0001_1_0001_0000400021_0000001_0_af2pred_0001_af2pred_1 (protein)
chain: SLEEVEERLEKILGDPELAKLLVEALELFERGDPRQAARVLRELAKLLGDFREVFKLAKRVAELL
B18: il2ra_site1_2b5i_normal_mot_3116615af0ee64d731c1c85d8523bf51_0001_000000216_0001_15_32_H_._HHH_b2_02169_0001_0000700016_0000001_1_af2pred_dldesign_0_af2pred (protein)
chain: SSSSSNAREEVERLIEEAKKLKNKREAFETLTKAHALASAAGDDELQDRVEELFSELSKKSSSSS
B19: il2ra_site2_2erj_sap_27_mot_HHH_b1_01239_000000175_0001_43_57_H_._59747a5255cd687c2960285eb4440dff_0001_1_af2_0001_0000600010_0000001_0_0001 (protein)
chain: SSSSSSSLLEEAEEEIERLLEEGNAEEALRLAYEVANELLRRDLELAREFLERAQELFSSSSSSS
B20: il2ra_site1_1z92_sap_14_mot_HHH_b2_05238_af2_000000252_0001_38_55_H_._HHH_b1_03322_0001_0000400015_0000001_0_0001_af2pred_0001_af2pred_1 (protein)
chain: SELEEILEEVLKLVPNPRVREFLREQLERKLKLGDEESAIRLALHVAEQAGDPELAEELRKLLEP
B21: il2ra_site1_3nfp_normal_mot_HHH_b1_07204_af2_000000238_0001_41_55_H_._HHH_b1_04029_af2_0001_0000200007_0000001_0 (protein)
chain: SSSSSEEYEEALKLSRELKELLREGDEEEIRRVAEELEKLARELNDPIAERLVEDVLRSASSSSS
B22: il2ra_site1_2b5i_normal_mot_HHH_b1_06312_000000036_0001_42_56_H_._HHH_b2_04237_0001_0000100004_0000001_0_af2pred_dldesign_0_af2pred (protein)
chain: SSSSSLGKEARETMLEANRLYQAGKPEEAKALLEKMLEKLKAAGKEGMVKKMERLLKLVLESSSS
B23: il2ra_site1_1z92_normal_mot_HHH_b2_04090_000000052_0001_1_16_H_._HHH_b2_04723_0001_0000100003_0000001_0 (protein)
chain: SSSSSTAEKLSEFLFEQLKRKLELGNEKAVKRVSEMARKQAEESKDEELEKLVEEAERFLSSSSS
B24: il2ra_site2_2erj_normal_mot_4b0744c440632e7b239d8b54ed7c44c2_0001_af2_000000182_0001_16_31_H_._HHH_b1_02773_0001_0000200005_0000001_0 (protein)
chain: SSSSSSSDEEEVERLLEEAEKIPDERELFKLLNEAQHIAARLRDPELLRLILEFLRRFSSSSSSS

molecular target: il2ra, P01589; assay: yeast display titration

Apparent Kd, inactive:
B1 no binding seen
B2 no binding seen
B3 no binding seen
B4 no binding seen
B5 > 1240 nM
B6 > 1110 nM
B7 no binding seen
B8 no binding seen
B9 no binding seen
B10 no binding seen
B11 no binding seen
B12 no binding seen
B13 no binding seen
B14 no binding seen
B15 no binding seen
B16 no binding seen
B17 no binding seen
B18 no binding seen
B19 no binding seen
B20 no binding seen
B21 no binding seen
B22 no binding seen
B23 no binding seen
B24 no binding seen

2 entries drawn at random from those above, as already listed:
Apparent Kd, inactive:
B14 no binding seen
B10 no binding seen
